Results are given in words; binding and its absence hold for the method and conditions named. Binding seen in cells or lysates may run through a third protein. Some results given as binding are weak or reduced against the parent protein; the word gives no strength. Blank lines part the entries; values can stand above or below the substance they belong to.
What was measured:
[1] = target: GST-fused C-terminal domain of FIP200 (amino acid residues 1357-1594) (human) (UniProt Q8TDY2); test: pull-down; GST-FIP200 recombinant protein immobilized on glutathione beads, mixed with cell lysate containing ectopically expressed HA-tagged COP1; bound proteins blotted with antibody against COP1; only the target purified
[2] = target: wild-type full-length COP1 fused to the C-terminal half of YFP (COP1-YC) (mouse) (UniProt Q9R1A8); test: split reporter; split GFP (YFP) halves YN (1-154) and YC (155-238) fused to the two proteins; NIH3T3 cells transfected, before and after treatment with UV; fluorescence microscopy and flow cytometer
[3] = target: HA-GFP-fused COP1, wild type (mouse) (UniProt Q9R1A8); test: co-IP; lysates of NIH3T3 transfectants immunoprecipitated with rabbit antibody to an HA-epitope (normal rabbit serum as control); blot with antibody against COP1
[4] = target: HA-GFP-fused COP1, SA mutant (mouse) (UniProt Q9R1A8); test: as above
[5] = target: full-length FIP200 fused to the N-terminal half of YFP (FIP200-YN) (human) (UniProt Q8TDY2); test: split reporter; split GFP (YFP) halves YN (1-154) and YC (155-238) fused to the two proteins; NIH3T3 cells transfected, before and after treatment with UV; fluorescence microscopy and flow cytometer

Amino acid sequences for entries named in this document (tags omitted). A change or cut given only in a name is not applied to a line headed by its entry. Chains listed by the source or under a name are the forms on record and can include a tag or linker. Residues count along the entry.
UniProt Q8TDY2: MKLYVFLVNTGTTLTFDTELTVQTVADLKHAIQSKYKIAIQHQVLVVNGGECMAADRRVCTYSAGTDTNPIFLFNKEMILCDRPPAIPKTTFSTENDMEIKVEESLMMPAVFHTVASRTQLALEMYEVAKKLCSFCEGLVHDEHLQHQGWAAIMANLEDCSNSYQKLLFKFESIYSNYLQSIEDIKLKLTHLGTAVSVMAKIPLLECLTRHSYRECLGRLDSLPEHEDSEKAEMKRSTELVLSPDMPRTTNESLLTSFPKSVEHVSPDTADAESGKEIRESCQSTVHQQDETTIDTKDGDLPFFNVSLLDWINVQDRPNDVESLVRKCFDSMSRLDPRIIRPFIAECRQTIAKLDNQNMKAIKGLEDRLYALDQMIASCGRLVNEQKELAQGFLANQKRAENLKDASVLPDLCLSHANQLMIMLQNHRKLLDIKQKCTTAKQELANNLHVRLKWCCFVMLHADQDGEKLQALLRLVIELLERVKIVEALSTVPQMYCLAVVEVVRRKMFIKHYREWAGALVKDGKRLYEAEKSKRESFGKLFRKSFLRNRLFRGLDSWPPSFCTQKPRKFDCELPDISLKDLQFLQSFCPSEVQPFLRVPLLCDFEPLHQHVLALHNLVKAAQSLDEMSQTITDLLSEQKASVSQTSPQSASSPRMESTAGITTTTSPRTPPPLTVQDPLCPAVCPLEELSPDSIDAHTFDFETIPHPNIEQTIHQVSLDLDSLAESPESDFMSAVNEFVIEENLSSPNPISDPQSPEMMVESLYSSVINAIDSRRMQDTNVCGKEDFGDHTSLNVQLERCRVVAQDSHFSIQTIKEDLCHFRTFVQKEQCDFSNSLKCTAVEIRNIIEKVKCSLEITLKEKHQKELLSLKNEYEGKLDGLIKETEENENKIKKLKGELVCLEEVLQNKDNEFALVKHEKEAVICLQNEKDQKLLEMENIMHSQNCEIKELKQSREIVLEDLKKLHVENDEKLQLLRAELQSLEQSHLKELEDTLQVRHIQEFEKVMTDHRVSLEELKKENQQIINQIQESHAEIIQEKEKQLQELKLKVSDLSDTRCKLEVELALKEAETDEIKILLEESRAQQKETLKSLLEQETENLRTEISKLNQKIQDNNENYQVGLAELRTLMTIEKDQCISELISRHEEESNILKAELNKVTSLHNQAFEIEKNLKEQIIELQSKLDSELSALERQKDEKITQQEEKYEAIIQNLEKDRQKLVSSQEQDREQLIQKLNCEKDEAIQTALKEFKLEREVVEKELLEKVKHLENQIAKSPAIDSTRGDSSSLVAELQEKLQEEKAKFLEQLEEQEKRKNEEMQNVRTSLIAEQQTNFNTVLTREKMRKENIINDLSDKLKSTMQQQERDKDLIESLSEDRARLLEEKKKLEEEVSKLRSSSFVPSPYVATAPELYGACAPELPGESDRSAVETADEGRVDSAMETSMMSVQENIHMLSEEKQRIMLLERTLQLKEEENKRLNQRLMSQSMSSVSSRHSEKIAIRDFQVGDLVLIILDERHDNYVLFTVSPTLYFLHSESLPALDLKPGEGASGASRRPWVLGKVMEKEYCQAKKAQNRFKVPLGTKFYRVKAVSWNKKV
GST-fused C-terminal domain of FIP200 (amino acid residues 1357-1594): residues 1357-1594 of Q8TDY2
UniProt Q9R1A8: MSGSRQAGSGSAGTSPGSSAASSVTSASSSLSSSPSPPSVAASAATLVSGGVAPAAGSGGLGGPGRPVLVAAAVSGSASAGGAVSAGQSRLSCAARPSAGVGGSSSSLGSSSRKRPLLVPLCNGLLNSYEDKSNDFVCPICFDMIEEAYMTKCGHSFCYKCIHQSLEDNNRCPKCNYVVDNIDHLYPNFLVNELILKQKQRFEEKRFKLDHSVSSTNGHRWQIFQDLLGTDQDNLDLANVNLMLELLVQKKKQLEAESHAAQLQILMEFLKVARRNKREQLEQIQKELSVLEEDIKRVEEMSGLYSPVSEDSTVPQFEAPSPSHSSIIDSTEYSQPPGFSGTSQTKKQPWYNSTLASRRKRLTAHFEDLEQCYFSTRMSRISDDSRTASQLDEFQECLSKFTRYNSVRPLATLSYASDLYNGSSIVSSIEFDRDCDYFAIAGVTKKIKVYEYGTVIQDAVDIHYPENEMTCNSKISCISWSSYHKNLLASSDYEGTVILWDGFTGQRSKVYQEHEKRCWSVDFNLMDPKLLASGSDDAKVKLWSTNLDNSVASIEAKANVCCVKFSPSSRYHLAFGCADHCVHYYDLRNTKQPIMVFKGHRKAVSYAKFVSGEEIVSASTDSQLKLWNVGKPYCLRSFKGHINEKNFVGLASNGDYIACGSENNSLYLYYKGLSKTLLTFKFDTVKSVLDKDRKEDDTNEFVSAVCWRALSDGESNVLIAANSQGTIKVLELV
HA-GFP-fused COP1, SA mutant (Q9R1A8, form named): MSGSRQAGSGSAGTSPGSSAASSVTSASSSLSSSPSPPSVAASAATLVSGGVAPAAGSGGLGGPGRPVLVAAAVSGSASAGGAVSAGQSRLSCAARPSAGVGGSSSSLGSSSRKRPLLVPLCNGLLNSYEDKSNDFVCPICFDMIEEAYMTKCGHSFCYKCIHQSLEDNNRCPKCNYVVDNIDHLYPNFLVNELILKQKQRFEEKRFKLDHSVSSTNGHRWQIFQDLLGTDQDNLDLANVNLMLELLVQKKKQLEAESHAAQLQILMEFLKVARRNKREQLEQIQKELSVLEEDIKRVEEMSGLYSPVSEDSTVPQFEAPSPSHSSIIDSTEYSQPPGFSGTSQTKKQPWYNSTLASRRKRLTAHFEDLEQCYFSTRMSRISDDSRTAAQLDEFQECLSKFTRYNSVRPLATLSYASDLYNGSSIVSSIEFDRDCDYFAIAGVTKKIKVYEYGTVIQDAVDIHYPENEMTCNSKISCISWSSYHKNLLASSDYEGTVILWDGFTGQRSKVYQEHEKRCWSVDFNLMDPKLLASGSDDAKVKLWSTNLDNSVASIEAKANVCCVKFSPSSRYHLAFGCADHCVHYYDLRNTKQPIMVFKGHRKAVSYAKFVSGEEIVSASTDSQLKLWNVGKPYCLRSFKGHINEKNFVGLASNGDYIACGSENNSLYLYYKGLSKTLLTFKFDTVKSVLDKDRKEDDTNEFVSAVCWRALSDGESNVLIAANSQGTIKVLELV

binding [1]: binds
Substance: HA-tagged wild-type COP1 (from UniProt Q9R1A8 1-733)

binding [2]: binds
Substance: full-length COP1 fused to the N-terminal half of YFP (COP1-YN) (from UniProt Q9R1A8 1-733)

binding [3]: binds
binding [4]: binds
Substance: endogenous COP1 protein of NIH3T3 cells (from UniProt Q9R1A8 1-733)

binding [5]: binds
Substance: wild-type full-length COP1 fused to the C-terminal half of YFP (COP1-YC) (from UniProt Q9R1A8 1-733)

Source: paper PMC3548756
